Measurements from PubChem BioAssay AID504444 (National Center for Advancing Translational Sciences (NCATS), 2011).
The campaign covered roughly 360,000 compounds. About 7,500 (2.1%) were called active. Inconclusive results, whose numbers are uncertain, are shown with a selection of clear calls. Calls follow the shape of the dose curve; as a rule, active = well fitted inhibition curve with a large enough effect; inconclusive = small, poorly fitted or top-dose-only effect, or effect the other way; inactive = flat fitted curve, though single readings scatter. Potencies beside an inconclusive call are fits to weak or partial responses and may not hold up.
Potency is read from the fitted curve at half-maximal effect.

Experiment: Nrf2 qHTS screen for inhibitors; also: nearly all actives have a fitted effect of over 60% in size
Conditions: A549 ARE-Fluc reporter, luciferase luminescence, 18-24 h; series mostly up to 46 µM
How it was run: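 Concentration-response testing used A549 ARE_Fluc cells at 5000 cells/well. Following an 18-24 h compound incubation, viability was read by fluorescence (Ex 405/Em 525) and luciferase output by luminescence.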
With `COc1ccc(C(=O)NCc2cc(C)nc3ccccc23)cc1` the Potency was inconclusive: 13 µM [falling, partial curve, poor fit].
In the case of `Cc1cccc(OCC(=O)Nc2ccc3c(c2)nc(CCN2CCN(c4ccccn4)CC2)n3C)c1`, the Potency is reported as inconclusive: 20.6 µM [falling, single point].
In the case of `CCOc1ccccc1CNC(=O)c1cccn1-c1nnc(N2CCCCC2)s1`, the Potency is reported as inconclusive: 1.64 µM [activator, full curve].
With `C=CCc1ccc(OCCCCNC2CCCC2)c(OC)c1` the Potency was inconclusive: 5.17 µM [activator, full curve, poor fit].
With `O=C(NCCc1ccccc1)c1ccc(CS(=O)Cc2cccc(Cl)c2)o1` (stereo not given) the Potency was “inactive”.
For `COc1ccccc1N1CCN(C(=O)c2cc(-c3ccccc3O)on2)CC1`, the Potency was inconclusive: 2.06 µM [activator, partial curve, poor fit].
With `N#Cc1cccc(NC(=O)c2cc3c(s2)-c2ccc(Cl)cc2SC3)c1` the Potency was inconclusive: 4.11 µM [falling, full curve, poor fit].
With `Nc1nc(-c2ccccc2)nc2sc3c(c12)CCCC3` the Potency was inconclusive: 6.51 µM [activator, single point].
In the case of `COc1ccc(Cn2c(=O)n(Cc3ccco3)c(=N)c3c4c(sc32)COC(C)(C)C4)cc1`, the Potency is reported as inconclusive: 10.3 µM [falling, partial curve, poor fit].
In the case of `CS(=O)(=O)N(CC(=O)NCc1ccco1)c1ccc(Cl)c(C(F)(F)F)c1`, the Potency is reported as inconclusive: 25.9 µM [falling, partial curve].
In the case of `O=C(NCCSc1ccccc1)c1ccco1`, the Potency is reported as inconclusive: 14.1 µM [activator, single point].
For `O=C(O)c1ccc(N/N=C/C2=Cc3ccccc3OC2)cc1`, the Potency was inconclusive: 2.91 µM [activator, full curve].
For `Cc1ncc([N+](=O)[O-])n1CC(=O)Nc1ccc(OC(F)(F)Cl)cc1`, the Potency was inconclusive: 18.4 µM [falling, single point].
For `CC(C)CCn1c(=O)c2sccc2n2c(CCCC(=O)NCc3ccc(F)cc3)nnc12`, the Potency was “inactive”.
In the case of `C[C@H](CCC(=O)O)[C@H]1CC[C@H]2[C@@H]3CC[C@@H]4C[C@H](O)CC[C@]4(C)[C@H]3C[C@H](O)[C@]12C`, the Potency is reported as inconclusive: 23.1 µM [falling, partial curve].
For `Cc1ccccc1CN(C)C(=O)[C@H](Cc1ccccc1)NC(=O)c1ccco1`, the Potency was inconclusive: 6.51 µM [falling, partial curve, poor fit].
In the case of `O=C(COc1ccccc1)Nc1cccc(-c2cn3cccnc3n2)c1`, the Potency is reported as inconclusive: 9.2 µM [activator, single point].
With `CCOc1ccc(N(C)C(CNS(=O)(=O)c2ccccc2)c2ccccc2)cc1` (stereo not given) the Potency was inconclusive: 29.1 µM [falling, single point].
With `O=C(O)CSc1cc(NS(=O)(=O)c2ccc(Cl)cc2)c2ccccc2c1O` the Potency was “inactive”.
With `O=C1C2=C(NC(=S)NC2c2ccc(Cl)cc2)NC(c2ccc(Cl)cc2)N1c1ccc(Cl)cc1` (stereo not given) the Potency was inconclusive: 29.1 µM [falling, single point].
With `CN(C)S(=O)(=O)c1ccc(C(=O)Nc2nc(-c3ccccc3)c(C(=O)c3ccccc3)s2)cc1` the Potency was inconclusive: 10.3 µM [falling, partial curve].
For `O=S(=O)(c1ccc(Cl)cc1)N1CCN(S(=O)(=O)c2ccc3c(c2)OCCO3)CC1`, the Potency was “inactive”.
With `CCN(Cc1ccc2c(c1)OCO2)C(=O)CSc1nc(C)nc2sc(C)c(C)c12` the Potency was “inactive”.
For `CCCCCCCNC(=O)C1(CC2CC(c3ccccc3)=NO2)CCNCC1` (stereo not given), the Potency was inconclusive: 7.31 µM [activator, partial curve, poor fit].
With `Cc1ccccc1-n1c(SCc2cccc(F)c2)nc2[nH]ncc2c1=O` the Potency was inconclusive: 18.4 µM [falling, single point].
For `CC(=O)Nc1sc2c(c1-c1nc3ccccc3s1)CN(C(C)C)CC2`, the Potency was inconclusive: 25.9 µM [falling, single point].
In the case of `COc1ccc(NC(=O)c2cnc[nH]2)cc1`, the Potency is reported as inconclusive: 3.26 µM [activator, full curve, poor fit].
For `Nc1nc(SCc2ccccc2)cc(SCc2ccccc2)n1`, the Potency was inconclusive: 2.31 µM [activator, full curve, poor fit].
With `CCN(CC(=O)NC1CCS(=O)(=O)C1)c1ccc(S(=O)(=O)N(CC)CC)cc1[N+](=O)[O-]` (stereo not given) the Potency was inconclusive: 25.9 µM [falling, single point].
In the case of `O=C(Nc1ccncc1)OCc1ccccc1`, the Potency is reported as inconclusive: 29.1 µM [falling, single point].
For `O=C(CN1CCCN(S(=O)(=O)c2ccc(Br)s2)CC1)Nc1ccc(Cl)cc1`, the Potency was inconclusive: 29.1 µM [falling, single point].
For `O=S1(=O)N=C(Oc2ccccc2Cl)c2ccccc21`, the Potency was “inactive”.
With `CC(OC(=O)c1ccncc1)C(=O)Nc1cccc(Cl)c1` (stereo not given) the Potency was inconclusive: 1.3 µM [activator, full curve, poor fit].
In the case of `CCc1ccc(NC(=O)CN(c2cccc(C)c2)S(C)(=O)=O)cc1`, the Potency is reported as inconclusive: 18.4 µM [falling, partial curve].
With `C=CCN(C(=O)c1csnn1)C(C(=O)NC1CCCC1)c1ccc(OC)cc1` (stereo not given) the Potency was “inactive”.
With `O=C(OCn1ncc(Br)c(Br)c1=O)c1ccccc1Cl` the Potency was inconclusive: 29.1 µM [falling, single point].
For `Cn1c(-c2ccc(F)cc2)cc2onc(-c3ccccc3Cl)c2c1=O`, the Potency was inconclusive: 9.2 µM [activator, partial curve].
For `Cc1cc(CNc2ncnc3ccc(-c4ccc5c(c4)OCO5)cc23)c(C)o1`, the Potency was inconclusive: 4.61 µM [activator, partial curve, poor fit].
For `O=C(CCn1c(=O)oc2ccccc21)Nc1cccc([N+](=O)[O-])c1`, the Potency was inconclusive: 18.4 µM [falling, partial curve, poor fit].
For `CC(=O)O[C@H]1C(=O)[C@@]2(C)[C@H]([C@H](OC(=O)c3ccccc3)[C@]3(O)C[C@H](OC(=O)[C@H](O)C(NC(=O)c4ccccc4)c4ccccc4)C(C)=C1C3(C)C)[C@]1(OC(C)=O)CO[C@@H]1C[C@@H]2O` (stereo not given in full), the Potency was inconclusive: 16.4 µM [falling, single point].
